Patent US20100119512A1, “METHODS OF DIAGNOSING, TREATING, AND PREVENTING INCREASED VASCULAR PERMEABILITY” (Joslin Diabetes Center, priority 2007, published 2010)

Assay: Vitreous pH after intravitreal injection (micro-electrode or BCECF-dextran probe)
Assay type: in vivo, rat

## CA-I: human erythrocyte CA-I (Sigma), carbonic anhydrase 1
5 min after intravitreal injection, microminiature electrode
  pH of vitreous, electrode: 7.8±0.21
Following intravitreal injection, BCECF-dextran
  vitreous pH calculated using pH sensitive dye and reference pH: 7.96±0.38
